Results: article PMC13304329

By UniProt entry, the sequences of proteins in these tests, tags left out. Residues count along the entry.
UniProt Q5S007: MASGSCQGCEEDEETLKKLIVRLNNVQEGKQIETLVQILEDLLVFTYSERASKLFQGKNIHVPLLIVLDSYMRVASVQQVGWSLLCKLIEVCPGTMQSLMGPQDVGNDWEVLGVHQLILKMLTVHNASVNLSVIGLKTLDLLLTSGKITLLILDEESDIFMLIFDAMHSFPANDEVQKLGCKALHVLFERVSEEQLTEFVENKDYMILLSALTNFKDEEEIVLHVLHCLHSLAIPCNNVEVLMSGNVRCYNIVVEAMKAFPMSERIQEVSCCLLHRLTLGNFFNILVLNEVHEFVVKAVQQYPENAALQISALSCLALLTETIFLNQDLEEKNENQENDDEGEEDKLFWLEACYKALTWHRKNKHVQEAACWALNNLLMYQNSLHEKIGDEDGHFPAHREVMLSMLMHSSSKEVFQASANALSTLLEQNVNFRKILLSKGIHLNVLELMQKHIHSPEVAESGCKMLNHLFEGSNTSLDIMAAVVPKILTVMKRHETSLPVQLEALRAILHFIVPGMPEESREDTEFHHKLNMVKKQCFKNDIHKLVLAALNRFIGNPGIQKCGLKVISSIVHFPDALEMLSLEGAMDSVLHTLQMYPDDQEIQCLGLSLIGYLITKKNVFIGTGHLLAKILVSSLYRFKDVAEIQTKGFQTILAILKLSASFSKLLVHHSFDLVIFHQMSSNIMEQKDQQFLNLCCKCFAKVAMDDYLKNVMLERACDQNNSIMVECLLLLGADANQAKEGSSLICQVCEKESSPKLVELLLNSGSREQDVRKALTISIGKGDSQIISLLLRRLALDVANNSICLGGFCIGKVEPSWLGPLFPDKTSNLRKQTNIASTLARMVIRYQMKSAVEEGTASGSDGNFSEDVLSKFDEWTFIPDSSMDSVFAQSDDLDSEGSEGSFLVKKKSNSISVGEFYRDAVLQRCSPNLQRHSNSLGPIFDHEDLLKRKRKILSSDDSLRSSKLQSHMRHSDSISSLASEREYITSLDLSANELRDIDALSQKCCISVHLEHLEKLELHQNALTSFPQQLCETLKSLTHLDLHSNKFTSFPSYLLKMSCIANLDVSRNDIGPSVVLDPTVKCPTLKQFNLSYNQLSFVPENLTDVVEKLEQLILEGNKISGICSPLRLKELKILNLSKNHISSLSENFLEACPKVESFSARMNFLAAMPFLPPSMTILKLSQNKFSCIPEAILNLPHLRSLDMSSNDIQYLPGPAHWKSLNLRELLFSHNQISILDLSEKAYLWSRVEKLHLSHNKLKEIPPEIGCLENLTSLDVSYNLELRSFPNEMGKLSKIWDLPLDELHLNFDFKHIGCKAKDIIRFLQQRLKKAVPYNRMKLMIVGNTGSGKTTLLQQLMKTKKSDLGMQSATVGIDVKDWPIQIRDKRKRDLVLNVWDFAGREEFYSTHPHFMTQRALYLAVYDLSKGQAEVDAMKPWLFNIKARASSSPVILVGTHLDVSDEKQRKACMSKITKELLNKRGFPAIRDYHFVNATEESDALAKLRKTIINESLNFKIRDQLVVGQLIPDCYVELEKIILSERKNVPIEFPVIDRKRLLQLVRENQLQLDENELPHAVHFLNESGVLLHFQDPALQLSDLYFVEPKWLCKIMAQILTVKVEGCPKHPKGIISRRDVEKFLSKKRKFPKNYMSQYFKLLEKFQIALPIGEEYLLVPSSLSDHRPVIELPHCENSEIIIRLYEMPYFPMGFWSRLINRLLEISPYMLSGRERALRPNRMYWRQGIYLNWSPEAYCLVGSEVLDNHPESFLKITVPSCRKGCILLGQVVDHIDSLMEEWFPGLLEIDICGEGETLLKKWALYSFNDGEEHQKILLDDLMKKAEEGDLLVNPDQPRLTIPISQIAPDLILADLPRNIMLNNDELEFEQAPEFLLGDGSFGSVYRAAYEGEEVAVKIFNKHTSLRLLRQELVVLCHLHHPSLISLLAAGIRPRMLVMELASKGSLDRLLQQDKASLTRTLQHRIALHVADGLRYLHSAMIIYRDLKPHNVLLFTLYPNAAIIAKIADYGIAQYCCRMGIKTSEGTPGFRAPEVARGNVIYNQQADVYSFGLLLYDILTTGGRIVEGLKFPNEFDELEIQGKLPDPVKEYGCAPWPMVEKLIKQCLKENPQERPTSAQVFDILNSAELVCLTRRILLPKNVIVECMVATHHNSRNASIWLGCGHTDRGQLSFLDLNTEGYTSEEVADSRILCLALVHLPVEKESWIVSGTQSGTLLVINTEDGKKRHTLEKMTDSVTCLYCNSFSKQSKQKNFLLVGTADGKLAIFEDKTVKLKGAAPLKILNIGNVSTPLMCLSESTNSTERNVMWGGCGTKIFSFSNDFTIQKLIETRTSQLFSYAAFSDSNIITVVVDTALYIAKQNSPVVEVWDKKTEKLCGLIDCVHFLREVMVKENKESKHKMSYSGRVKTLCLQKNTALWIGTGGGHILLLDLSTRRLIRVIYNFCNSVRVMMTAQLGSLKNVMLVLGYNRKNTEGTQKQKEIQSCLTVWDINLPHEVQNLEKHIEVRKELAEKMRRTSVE
UniProt P78310, residues 20-365: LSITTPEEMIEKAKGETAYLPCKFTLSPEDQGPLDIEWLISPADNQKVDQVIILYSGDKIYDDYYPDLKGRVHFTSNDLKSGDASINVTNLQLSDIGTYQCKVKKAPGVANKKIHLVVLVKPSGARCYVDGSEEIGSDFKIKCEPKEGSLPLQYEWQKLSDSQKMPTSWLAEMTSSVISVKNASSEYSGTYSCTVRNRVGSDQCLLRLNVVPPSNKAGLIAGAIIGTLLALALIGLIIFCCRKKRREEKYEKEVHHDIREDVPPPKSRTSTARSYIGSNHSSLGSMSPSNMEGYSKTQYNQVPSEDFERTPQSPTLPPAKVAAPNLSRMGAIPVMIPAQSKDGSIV
UniProt Q6NXT4: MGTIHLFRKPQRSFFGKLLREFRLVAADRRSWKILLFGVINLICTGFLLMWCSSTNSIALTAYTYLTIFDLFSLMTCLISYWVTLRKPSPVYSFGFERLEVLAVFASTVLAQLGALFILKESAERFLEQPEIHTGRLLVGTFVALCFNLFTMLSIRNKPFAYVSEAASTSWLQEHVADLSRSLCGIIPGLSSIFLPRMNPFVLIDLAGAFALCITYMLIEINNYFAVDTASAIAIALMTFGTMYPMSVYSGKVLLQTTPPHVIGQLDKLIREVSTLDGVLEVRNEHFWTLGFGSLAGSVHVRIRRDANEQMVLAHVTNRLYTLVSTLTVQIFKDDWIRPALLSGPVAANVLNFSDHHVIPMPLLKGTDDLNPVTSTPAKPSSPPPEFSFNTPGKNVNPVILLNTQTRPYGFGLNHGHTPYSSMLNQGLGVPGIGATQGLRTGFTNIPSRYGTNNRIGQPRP
UniProt Q8NDI1: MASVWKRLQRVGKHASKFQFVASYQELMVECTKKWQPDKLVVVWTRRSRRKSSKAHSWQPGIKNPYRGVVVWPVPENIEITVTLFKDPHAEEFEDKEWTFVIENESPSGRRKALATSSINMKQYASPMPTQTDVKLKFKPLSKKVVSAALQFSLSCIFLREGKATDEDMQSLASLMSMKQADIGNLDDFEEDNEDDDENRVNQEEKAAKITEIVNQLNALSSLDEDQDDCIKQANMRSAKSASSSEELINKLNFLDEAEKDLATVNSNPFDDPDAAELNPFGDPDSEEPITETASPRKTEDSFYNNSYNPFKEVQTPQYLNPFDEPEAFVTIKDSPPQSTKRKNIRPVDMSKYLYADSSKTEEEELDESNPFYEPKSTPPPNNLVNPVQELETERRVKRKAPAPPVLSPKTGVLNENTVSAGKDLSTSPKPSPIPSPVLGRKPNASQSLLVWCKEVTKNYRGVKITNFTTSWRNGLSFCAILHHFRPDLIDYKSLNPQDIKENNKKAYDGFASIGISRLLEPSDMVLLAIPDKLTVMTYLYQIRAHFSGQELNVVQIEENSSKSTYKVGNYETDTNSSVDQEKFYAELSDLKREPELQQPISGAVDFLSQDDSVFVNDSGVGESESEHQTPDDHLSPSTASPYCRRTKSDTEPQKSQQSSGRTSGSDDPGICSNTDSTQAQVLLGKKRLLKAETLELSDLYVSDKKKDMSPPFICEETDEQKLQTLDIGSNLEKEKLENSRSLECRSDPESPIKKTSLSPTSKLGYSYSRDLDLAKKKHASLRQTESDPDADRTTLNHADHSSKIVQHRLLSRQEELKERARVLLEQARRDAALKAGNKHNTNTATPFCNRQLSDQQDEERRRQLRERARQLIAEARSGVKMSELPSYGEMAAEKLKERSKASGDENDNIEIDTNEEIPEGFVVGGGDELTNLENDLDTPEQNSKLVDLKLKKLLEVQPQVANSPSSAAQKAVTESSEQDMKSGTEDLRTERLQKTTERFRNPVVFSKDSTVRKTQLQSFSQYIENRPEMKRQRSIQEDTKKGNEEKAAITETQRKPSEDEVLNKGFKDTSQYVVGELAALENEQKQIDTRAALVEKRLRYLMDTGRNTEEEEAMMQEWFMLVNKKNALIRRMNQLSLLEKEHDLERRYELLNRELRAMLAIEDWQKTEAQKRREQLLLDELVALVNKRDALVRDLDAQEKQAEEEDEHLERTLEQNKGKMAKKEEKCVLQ
UniProt P61006: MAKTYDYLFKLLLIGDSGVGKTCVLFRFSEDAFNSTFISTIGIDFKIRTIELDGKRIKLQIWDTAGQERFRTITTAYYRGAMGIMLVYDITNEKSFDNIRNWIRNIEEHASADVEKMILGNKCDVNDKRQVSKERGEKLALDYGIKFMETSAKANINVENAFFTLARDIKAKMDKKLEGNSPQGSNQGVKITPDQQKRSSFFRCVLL
UniProt Q13586, residues 23-685: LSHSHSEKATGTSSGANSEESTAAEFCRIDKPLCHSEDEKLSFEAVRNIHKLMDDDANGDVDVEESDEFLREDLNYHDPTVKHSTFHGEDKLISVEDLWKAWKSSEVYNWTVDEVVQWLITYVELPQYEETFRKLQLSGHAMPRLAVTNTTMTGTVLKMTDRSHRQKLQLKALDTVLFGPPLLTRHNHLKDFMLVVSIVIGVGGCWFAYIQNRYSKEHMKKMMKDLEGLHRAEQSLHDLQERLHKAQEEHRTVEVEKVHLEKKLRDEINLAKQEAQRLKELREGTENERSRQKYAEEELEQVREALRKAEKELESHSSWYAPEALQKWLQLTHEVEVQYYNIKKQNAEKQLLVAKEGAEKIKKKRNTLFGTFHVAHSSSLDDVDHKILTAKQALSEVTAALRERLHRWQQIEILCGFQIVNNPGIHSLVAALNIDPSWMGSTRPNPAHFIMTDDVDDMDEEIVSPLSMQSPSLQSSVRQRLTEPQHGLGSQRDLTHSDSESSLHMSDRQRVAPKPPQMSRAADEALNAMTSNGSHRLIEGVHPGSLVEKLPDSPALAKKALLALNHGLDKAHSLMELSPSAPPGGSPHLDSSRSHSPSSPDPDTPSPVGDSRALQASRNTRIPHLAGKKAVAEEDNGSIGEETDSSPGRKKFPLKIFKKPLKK
UniProt Q14739: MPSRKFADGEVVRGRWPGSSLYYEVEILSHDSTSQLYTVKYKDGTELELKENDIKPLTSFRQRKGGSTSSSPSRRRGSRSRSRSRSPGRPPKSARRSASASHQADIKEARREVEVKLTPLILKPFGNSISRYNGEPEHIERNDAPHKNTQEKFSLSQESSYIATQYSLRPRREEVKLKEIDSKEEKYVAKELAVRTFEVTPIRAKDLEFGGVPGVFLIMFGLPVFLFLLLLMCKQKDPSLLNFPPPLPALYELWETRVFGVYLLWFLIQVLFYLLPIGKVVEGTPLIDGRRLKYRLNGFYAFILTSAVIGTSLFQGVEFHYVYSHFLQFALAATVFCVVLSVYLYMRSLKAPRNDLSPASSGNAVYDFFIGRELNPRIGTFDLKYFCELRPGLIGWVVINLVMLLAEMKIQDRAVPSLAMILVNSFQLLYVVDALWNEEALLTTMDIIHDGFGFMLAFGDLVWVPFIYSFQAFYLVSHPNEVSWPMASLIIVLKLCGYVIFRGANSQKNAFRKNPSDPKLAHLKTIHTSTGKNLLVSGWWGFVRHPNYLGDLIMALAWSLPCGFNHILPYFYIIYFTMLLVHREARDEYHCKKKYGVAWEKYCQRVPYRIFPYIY
UniProt Q92692, residues 32-538: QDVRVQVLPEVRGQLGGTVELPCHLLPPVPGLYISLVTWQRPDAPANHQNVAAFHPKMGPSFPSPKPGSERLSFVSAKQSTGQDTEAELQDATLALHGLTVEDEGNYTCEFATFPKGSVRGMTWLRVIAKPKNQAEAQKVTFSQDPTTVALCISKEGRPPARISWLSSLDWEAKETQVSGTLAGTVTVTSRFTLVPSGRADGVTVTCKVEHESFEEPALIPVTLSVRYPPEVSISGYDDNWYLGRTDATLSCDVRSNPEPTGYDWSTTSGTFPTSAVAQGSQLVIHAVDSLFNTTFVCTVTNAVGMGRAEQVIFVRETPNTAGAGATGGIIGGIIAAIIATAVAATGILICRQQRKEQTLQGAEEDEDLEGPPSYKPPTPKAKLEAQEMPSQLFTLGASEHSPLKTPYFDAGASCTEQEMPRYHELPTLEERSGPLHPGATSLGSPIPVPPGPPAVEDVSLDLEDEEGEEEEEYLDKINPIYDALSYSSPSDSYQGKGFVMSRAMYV

B1: Sodium-coupled neutral amino acid transporter 2 (protein, UniProt Q96QD8 1-506)
chain: MKKAEMGRFSISPDEDSSSYSSNSDFNYSYPTKQAALKSHYADVDPENQNFLLESNLGKKKYETEFHPGTTSFGMSVFNLSNAIVGSGILGLSYAMANTGIALFIILLTFVSIFSLYSVHLLLKTANEGGSLLYEQLGYKAFGLVGKLAASGSITMQNIGAMSSYLFIVKYELPLVIQALTNIEDKTGLWYLNGNYLVLLVSLVVILPLSLFRNLGYLGYTSGLSLLCMVFFLIVVICKKFQVPCPVEAALIINETINTTLTQPTALVPALSHNVTENDSCRPHYFIFNSQTVYAVPILIFSFVCHPAVLPIYEELKDRSRRRMMNVSKISFFAMFLMYLLAALFGYLTFYEHVESELLHTYSSILGTDILLLIVRLAVLMAVTLTVPVVIFPIRSSVTHLLCASKDFSWWRHSLITVSILAFTNLLVIFVPTIRDIFGFIGASAASMLIFILPSAFYIKLVKKEPMKSVQKIGALFFLLSGVLVMTGSMALIVLDWVHNAPGGGH
B2: Secretory carrier-associated membrane protein 1 (protein, UniProt O15126 1-338)
chain: MSDFDSNPFADPDLNNPFKDPSVTQVTRNVPPGLDEYNPFSDSRTPPPGGVKMPNVPNTQPAIMKPTEEHPAYTQIAKEHALAQAELLKRQEELERKAAELDRREREMQNLSQHGRKNNWPPLPSNFPVGPCFYQDFSVDIPVEFQKTVKLMYYLWMFHAVTLFLNIFGCLAWFCVDSARAVDFGLSILWFLLFTPCSFVCWYRPLYGAFRSDSSFRFFVFFFVYICQFAVHVLQAAGFHNWGNCGWISSLTGLNQNIPVGIMMIIIAALFTASAVISLVMFKKVHGLYRTTGASFEKAQQEFATGVMSNKTVQTAAANAASTAASSAAQNAFKGNQI
B3: Rab11 family-interacting protein 1 (protein, UniProt Q6WKZ4 1-1283)
chain: MSLMVSAGRGLGAVWSPTHVQVTVLQARGLRAKGPGGTSDAYAVIQVGKEKYATSVSERSLGAPVWREEATFELPSLLSSGPAAAATLQLTVLHRALLGLDKFLGRAEVDLRDLHRDQGRRKTQWYKLKSKPGKKDKERGEIEVDIQFMRNNMTASMFDLSMKDKSRNPFGKLKDKIKGKNKDSGSDTASAIIPSTTPSVDSDDESVVKDKKKKSKIKTLLSKSNLQKTPLSQSMSVLPTSKPEKVLLRPGDFQSQWDEDDNEDESSSASDVMSHKRTASTDLKQLNQVNFTLPKKEGLSFLGGLRSKNDVLSRSNVCINGNHVYLEQPEAKGEIKDSSPSSSPSPKGFRKKHLFSSTENLAAGSWKEPAEGGGLSSDRQLSESSTKDSLKSMTLPSYRPAPLVSGDLRENMAPANSEATKEAKESKKPESRRSSLLSLMTGKKDVAKGSEGENPLTVPGREKEGMLMGVKPGEDASGPAEDLVRRSEKDTAAVVSRQGSSLNLFEDVQITEPEAEPESKSEPRPPISSPRAPQTRAVKPRLEVSPEAQPTARLPSPTDSPSSLPPLPSSSGQASVPSELGHGADTQSSESPSVFSSLSSPIAAPISTSTPIESWPLVDRGQAKSEGPPLLPKAELQTESLTPVPNSGSSALGSLFKQPSFPANKGTEDSLMGRTRETGTEKNTSSLELEESLPEQPETGRQEEELPRFPCKKQDYSPSSGEAQEVPFALSLSSDGAVSPVGELAAGGDRDLESQAGSLVESKARDAAEEVAPPLPMGASVPSIDSMMRKLEEMGLNLRKDQKKTKKRVSFSEQLFTEEAVAGAALLVEGHSSCPQELNPAWSVAGNASDGEPPESPHAEDSERESVTTPGPATCGAPASPADHLLLPSQEESFSEVPMSEASSAKDTPLFRMEGEDALVTQYQSKASDHEGLLSDPLSDLQLVSDFKSPIMADLNLSLPSIPEVASDDERIDQVEDDGDQVEDDGETAKSSTLDIGALSLGLVVPCPERGKGPSGEADRLVLGEGLCDFRLQAPQASVTAPSEQTTEFGIHKPHLGKSSSLDKQLPGPSGGEEEKPMGNGSPSPPPGTSLDNPVPSPSPSEIFPVTHSFPSSAHSDTHHTSTAESQKKATAEGSAGRVENFGKRKPLLQAWVSPSETHPVSAQPGAGTGSAKHRLHPVKPMNAMATKVANCSLGTATIISENLNNEVMMKKYSPSDPAFAYAQLTHDELIQLVLKQKETISKKEFQVRELEDYIDNLLVRVMEETPNILRIPTQVGKKAGKM
B4: Dyslexia-associated protein KIAA0319-like protein (protein, UniProt Q8IZA0 1-1049)
chain: MEKRLGVKPNPASWILSGYYWQTSAKWLRSLYLFYTCFCFSVLWLSTDASESRCQQGKTQFGVGLRSGGENHLWLLEGTPSLQSCWAACCQDSACHVFWWLEGMCIQADCSRPQSCRAFRTHSSNSMLVFLKKFQTADDLGFLPEDDVPHLLGLGWNWASWRQSPPRAALRPAVSSSDQQSLIRKLQKRGSPSDVVTPIVTQHSKVNDSNELGGLTTSGSAEVHKAITISSPLTTDLTAELSGGPKNVSVQPEISEGLATTPSTQQVKSSEKTQIAVPQPVAPSYSYATPTPQASFQSTSAPYPVIKELVVSAGESVQITLPKNEVQLNAYVLQEPPKGETYTYDWQLITHPRDYSGEMEGKHSQILKLSKLTPGLYEFKVIVEGQNAHGEGYVNVTVKPEPRKNRPPIAIVSPQFQEISLPTTSTVIDGSQSTDDDKIVQYHWEELKGPLREEKISEDTAILKLSKLVPGNYTFSLTVVDSDGATNSTTANLTVNKAVDYPPVANAGPNQVITLPQNSITLFGNQSTDDHGITSYEWSLSPSSKGKVVEMQGVRTPTLQLSAMQEGDYTYQLTVTDTIGQQATAQVTVIVQPENNKPPQADAGPDKELTLPVDSTTLDGSKSSDDQKIISYLWEKTQGPDGVQLENANSSVATVTGLQVGTYVFTLTVKDERNLQSQSSVNVIVKEEINKPPIAKITGNVVITLPTSTAELDGSKSSDDKGIVSYLWTRDEGSPAAGEVLNHSDHHPILFLSNLVEGTYTFHLKVTDAKGESDTDRTTVEVKPDPRKNNLVEIILDINVSQLTERLKGMFIRQIGVLLGVLDSDIIVQKIQPYTEQSTKMVFFVQNEPPHQIFKGHEVAAMLKSELRKQKADFLIFRALEVNTVTCQLNCSDHGHCDSFTKRCICDPFWMENFIKVQLRDGDSNCEWSVLYVIIATFVIVVALGILSWTVICCCKRQKGKPKRKSKYKILDATDQESLELKPTSRAGIKQKGLLLSSSLMHSESELDSDDAIFTWPDREKGKLLHGQNGSVPNGQTPLKARSPREEIL
B5: HA-RAB29 (protein, UniProt O14966 1-203)
chain: MGSRDHLFKVLVVGDAAVGKTSLVQRYSQDSFSKHYKSTVGVDFALKVLQWSDYEIVRLQLWDIAGQERFTSMTRLYYRDASACVIMFDVTNATTFSNSQRWKQDLDSKLTLPNGEPVPCLLLANKCDLSPWAVSRDQIDRFSKENGFTGWTETSVKENKNINEAMRVLIEKMMRNSTEDIMSLSTQGDYINLQTKSSSWSCC
B6: Sodium-coupled neutral amino acid transporter 1 (protein, UniProt Q9H2H9 1-487)
chain: MMHFKSGLELTELQNMTVPEDDNISNDSNDFTEVENGQINSKFISDRESRRSLTNSHLEKKKCDEYIPGTTSLGMSVFNLSNAIMGSGILGLAFALANTGILLFLVLLTSVTLLSIYSINLLLICSKETGCMVYEKLGEQVFGTTGKFVIFGATSLQNTGAMLSYLFIVKNELPSAIKFLMGKEETFSAWYVDGRVLVVIVTFGIILPLCLLKNLGYLGYTSGFSLSCMVFFLIVVIYKKFQIPCIVPELNSTISANSTNADTCTPKYVTFNSKTVYALPTIAFAFVCHPSVLPIYSELKDRSQKKMQMVSNISFFAMFVMYFLTAIFGYLTFYDNVQSDLLHKYQSKDDILILTVRLAVIVAVILTVPVLFFTVRSSLFELAKKTKFNLCRHTVVTCILLVVINLLVIFIPSMKDIFGVVGVTSANMLIFILPSSLYLKITDQDGDKGTQRIWAALFLGLGVLFSLVSIPLVIYDWACSSSSDEGH
B7: Sodium-dependent neutral amino acid transporter B(0)AT2 (protein, UniProt Q9H2J7 1-730)
chain: MPKNSKVVKRELDDDVTESVKDLLSNEDAADDAFKTSELIVDGQEEKDTDVEEGSEVEDERPAWNSKLQYILAQVGFSVGLGNVWRFPYLCQKNGGGAYLLPYLILLMVIGIPLFFLELSVGQRIRRGSIGVWNYISPKLGGIGFASCVVCYFVALYYNVIIGWSLFYFSQSFQQPLPWDQCPLVKNASHTFVEPECEQSSATTYYWYREALNISSSISESGGLNWKMTICLLAAWVMVCLAMIKGIQSSGKIIYFSSLFPYVVLICFLIRAFLLNGSIDGIRHMFTPKLEIMLEPKVWREAATQVFFALGLGFGGVIAFSSYNKRDNNCHFDAVLVSFINFFTSVLATLVVFAVLGFKANVINEKCITQNSETIMKFLKMGNISQDIIPHHINLSTVTAEDYHLVYDIIQKVKEEEFPALHLNSCKIEEELNKAVQGTGLAFIAFTEAMTHFPASPFWSVMFFLMLVNLGLGSMFGTIEGIVTPIVDTFKVRKEILTVICCLLAFCIGLIFVQRSGNYFVTMFDDYSATLPLLIVVILENIAVCFVYGIDKFMEDLKDMLGFAPSRYYYYMWKYISPLMLLSLLIASVVNMGLSPPGYNAWIEDKASEEFLSYPTWGLVVCVSLVVFAILPVPVVFIVRRFNLIDDSSGNLASVTYKRGRVLKEPVNLEGDDTSLIHGKIPSEMPSPNFGKNIYRKQSGSPTLDTAPNGRYGIGYLMADIMPDMPESDL

What follows are molecules tested against miniTurbo-LRRK2 (human) (UniProt Q5S007) (assay: proximity labelling; mT-LRRK2 co-expressed with HA-RAB29 against empty pcDNA3.0 vector; biotin labelling, Strep-Tactin enrichment, LC-MSMS, LFQ with FDR-controlled t test).

binding, binds:
Rab11 family-interacting protein 2 (from UniProt Q7L804 1-512)
Coxsackievirus and adenovirus receptor (from UniProt P78310 20-365)
Copper-transporting ATPase 1 (from UniProt Q04656 1-1500)
Desmoglein-2 (from UniProt Q14126 50-1118)
Zinc transporter 6 (from UniProt Q6NXT4 1-461)
EH domain-binding protein 1 (from UniProt Q8NDI1 1-1231)
Exocyst complex component 4 (from UniProt Q96A65 1-974)
Ras-related protein Rab-8A (from UniProt P61006 1-207)
Calcium-transporting ATPase type 2 C member 1 (from UniProt P98194 1-919)
Stromal interaction molecule 1 (from UniProt Q13586 23-685)
Leucyl-cystinyl aminopeptidase; Leucyl-cystinyl aminopeptidase, pregnancy serum form (from UniProt Q9UIQ6 1-1025) (enzyme)
4F2 cell-surface antigen heavy chain (from UniProt P08195 1-529)
Zinc finger CCCH-type antiviral protein 1 (from UniProt Q7Z2W4 1-902)
Lamin-B receptor (from UniProt Q14739 1-615)
Nectin-2 (from UniProt Q92692 32-538)
Cation-independent mannose-6-phosphate receptor (from UniProt P11717 41-2491)
B1
B2
B3
B4
B5
B6
B7

No constants are given. Whether binding was seen depends on the method and setting. Binding seen in cells or lysates may run through a third protein. These calls come from enrichment with a bait or labelling near it, and not all partners need be listed. Sequences can lack the tags named with a protein.
